Results reported in article doi:10.1101/631440.
No constants are given. Whether binding was seen depends on the method and setting. Binding seen in cells or lysates may run through a third protein. Some results given as binding are weak or reduced against the parent protein; the word gives no strength.

Sequences of proteins named here, by UniProt entry; tags and fusion partners are left off.
UniProt Q9EQT3: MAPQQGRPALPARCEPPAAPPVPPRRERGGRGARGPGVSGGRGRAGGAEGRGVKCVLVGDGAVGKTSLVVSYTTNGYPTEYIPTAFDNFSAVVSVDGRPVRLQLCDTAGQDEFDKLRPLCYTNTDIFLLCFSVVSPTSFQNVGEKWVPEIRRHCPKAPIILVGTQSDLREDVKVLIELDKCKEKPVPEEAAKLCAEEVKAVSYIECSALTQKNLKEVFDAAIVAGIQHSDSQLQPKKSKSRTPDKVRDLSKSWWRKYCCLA
UniProt Q15811: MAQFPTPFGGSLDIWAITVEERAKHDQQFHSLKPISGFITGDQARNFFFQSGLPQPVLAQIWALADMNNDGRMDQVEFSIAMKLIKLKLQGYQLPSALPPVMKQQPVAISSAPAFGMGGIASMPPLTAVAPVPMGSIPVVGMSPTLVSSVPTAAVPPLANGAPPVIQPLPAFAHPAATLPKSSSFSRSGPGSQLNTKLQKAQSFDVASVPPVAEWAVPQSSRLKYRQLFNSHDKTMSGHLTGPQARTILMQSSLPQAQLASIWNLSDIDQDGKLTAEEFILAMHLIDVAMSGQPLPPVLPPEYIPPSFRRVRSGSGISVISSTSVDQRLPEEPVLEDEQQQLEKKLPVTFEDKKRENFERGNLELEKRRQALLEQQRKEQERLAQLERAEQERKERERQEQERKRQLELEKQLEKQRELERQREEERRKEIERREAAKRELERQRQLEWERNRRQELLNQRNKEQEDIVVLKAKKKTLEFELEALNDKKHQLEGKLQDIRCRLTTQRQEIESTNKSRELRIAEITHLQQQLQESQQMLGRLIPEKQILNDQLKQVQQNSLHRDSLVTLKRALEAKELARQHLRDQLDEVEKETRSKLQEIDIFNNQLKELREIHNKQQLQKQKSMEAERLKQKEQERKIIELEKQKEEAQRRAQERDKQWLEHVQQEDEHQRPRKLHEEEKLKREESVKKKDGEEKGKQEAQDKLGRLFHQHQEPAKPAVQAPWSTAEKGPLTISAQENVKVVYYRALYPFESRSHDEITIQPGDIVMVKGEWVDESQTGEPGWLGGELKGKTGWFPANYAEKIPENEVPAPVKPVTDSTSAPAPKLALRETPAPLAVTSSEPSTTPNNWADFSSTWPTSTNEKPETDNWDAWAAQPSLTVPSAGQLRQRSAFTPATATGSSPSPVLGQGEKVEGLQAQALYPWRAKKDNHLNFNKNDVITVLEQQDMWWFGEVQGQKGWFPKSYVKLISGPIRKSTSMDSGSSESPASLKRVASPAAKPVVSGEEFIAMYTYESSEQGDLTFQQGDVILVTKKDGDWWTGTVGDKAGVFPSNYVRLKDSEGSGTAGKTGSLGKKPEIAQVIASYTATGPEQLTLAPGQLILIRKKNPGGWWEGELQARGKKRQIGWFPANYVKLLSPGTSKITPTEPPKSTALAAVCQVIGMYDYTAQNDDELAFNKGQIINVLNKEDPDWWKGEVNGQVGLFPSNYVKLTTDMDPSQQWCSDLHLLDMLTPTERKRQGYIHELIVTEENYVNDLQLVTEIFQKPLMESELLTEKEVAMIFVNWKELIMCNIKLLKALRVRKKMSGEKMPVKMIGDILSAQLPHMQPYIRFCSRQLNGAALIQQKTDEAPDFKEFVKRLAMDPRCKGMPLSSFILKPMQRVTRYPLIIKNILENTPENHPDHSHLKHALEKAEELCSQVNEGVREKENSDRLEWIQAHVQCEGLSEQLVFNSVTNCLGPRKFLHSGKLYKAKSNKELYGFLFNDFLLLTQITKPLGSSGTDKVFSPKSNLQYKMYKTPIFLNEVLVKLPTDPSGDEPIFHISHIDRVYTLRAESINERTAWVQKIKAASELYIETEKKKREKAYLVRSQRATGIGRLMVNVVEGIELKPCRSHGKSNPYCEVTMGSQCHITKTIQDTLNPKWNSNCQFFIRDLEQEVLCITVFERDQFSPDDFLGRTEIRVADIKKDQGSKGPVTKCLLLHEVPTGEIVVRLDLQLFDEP

How the values were obtained:
[1] = target: myc-tagged WT RhoU (mouse) (mouse) (UniProt Q9EQT3); assay: co-IP
[2] = target: endogenous ITSN1-L (human (endogenous in HEK293T)) (UniProt Q15811); assay: co-IP

Substance | binding [1] | binding [2]
Omni-tagged ITSN1-L (from UniProt Q15811 1-1721) | binds | –
endogenous ITSN2-L (from UniProt Q9NZM3-1 1-1697) | binds | –
myc-tagged WT RhoU (mouse) (from UniProt Q9EQT3 1-261) | – | binds
